Results are given in words; binding and its absence hold for the method and conditions named. In cells and extracts the contact can be indirect. Some results given as binding are weak or reduced against the parent protein; the word gives no strength.
Assays:
[1] = target: T1, Chk1, endogenous (human (endogenous in 293T and HCT116)) (UniProt O14757); test: co-IP; endogenous proteins, HCT116 and HCT116-323 (Cdc7 promoter mutant) treated with 2 mM HU for 4 hr; pulled down with anti-Chk1 antibody; western blot with anti-Claspin and anti-Chk1
T1 sequence: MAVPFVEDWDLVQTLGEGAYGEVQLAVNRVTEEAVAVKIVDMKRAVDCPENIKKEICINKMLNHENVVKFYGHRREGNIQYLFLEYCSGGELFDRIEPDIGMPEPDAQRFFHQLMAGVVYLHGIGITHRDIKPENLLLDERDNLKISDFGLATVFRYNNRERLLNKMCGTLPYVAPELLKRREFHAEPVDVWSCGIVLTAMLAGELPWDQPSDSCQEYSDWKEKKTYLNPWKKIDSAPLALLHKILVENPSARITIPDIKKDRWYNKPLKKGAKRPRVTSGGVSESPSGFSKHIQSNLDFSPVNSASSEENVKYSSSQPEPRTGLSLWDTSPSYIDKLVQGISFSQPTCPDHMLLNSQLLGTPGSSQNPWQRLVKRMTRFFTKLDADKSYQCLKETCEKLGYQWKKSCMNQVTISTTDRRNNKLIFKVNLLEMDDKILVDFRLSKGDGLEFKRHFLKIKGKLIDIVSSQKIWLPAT

Protein sequences, listed by entry. Tags and fused reporters are not part of them.
UniProt Q9HAW4: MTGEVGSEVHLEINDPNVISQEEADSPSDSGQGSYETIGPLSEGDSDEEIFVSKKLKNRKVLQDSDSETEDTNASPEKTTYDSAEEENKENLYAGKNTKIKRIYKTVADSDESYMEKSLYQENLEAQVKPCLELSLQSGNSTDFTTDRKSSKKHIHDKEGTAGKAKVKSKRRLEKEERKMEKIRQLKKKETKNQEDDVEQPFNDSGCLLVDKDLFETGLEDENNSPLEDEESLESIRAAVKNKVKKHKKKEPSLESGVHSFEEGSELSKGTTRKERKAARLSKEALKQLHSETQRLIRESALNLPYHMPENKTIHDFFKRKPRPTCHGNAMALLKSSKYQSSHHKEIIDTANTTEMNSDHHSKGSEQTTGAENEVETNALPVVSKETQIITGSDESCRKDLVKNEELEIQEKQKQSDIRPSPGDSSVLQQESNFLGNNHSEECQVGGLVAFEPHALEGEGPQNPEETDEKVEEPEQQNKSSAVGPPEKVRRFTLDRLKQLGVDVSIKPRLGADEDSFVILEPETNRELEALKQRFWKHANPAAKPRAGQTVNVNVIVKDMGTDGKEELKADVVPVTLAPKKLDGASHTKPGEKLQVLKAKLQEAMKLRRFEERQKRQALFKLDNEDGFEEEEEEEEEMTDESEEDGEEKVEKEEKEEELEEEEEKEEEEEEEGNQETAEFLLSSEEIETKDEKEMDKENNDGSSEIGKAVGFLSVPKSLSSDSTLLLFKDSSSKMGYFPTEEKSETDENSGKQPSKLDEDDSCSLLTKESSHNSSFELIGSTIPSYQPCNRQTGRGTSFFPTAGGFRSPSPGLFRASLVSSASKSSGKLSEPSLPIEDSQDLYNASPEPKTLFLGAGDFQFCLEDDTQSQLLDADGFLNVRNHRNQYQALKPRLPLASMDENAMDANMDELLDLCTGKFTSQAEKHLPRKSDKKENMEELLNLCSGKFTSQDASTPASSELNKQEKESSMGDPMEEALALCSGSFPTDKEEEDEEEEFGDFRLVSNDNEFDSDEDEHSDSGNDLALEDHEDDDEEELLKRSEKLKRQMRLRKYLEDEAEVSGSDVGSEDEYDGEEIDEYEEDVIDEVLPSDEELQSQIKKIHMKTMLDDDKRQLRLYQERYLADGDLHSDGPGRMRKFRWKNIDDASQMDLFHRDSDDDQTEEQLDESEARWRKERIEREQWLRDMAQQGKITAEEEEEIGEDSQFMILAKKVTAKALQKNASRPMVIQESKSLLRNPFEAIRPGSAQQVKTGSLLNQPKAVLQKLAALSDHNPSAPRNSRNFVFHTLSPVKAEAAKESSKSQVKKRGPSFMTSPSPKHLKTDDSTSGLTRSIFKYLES

[2] = target: T1, Chk1, endogenous (human (endogenous in 293T and HCT116)); test: co-IP; endogenous proteins, 293T cells with siControl or siCdc7 for 48 hr, with or without 2 mM HU for 4 hr; CSK buffer with 0.1% Triton-X100; pulled down with anti-Chk1 antibody; western blot with anti-Claspin and anti-Chk1

With “Claspin, endogenous (from UniProt Q9HAW4 1-1339)” the binding [1] was “binds” and the binding [2] was “binds”.

— publication PMC6996922
